Several values for one entry are separate records, joined by “and”; a condition that tells them apart may be missing. Equal values may be shown once. The whole screen tested about 580,000 compounds, of which about 6,100 (1.1%) were called active. Inconclusive means that the source gave no clear call. Such entries were picked first, then a sample of the others. Calls come from the whole dose curve; as a rule, active = well fitted inhibition curve with a large enough effect; inconclusive = small, poorly fitted or top-dose-only effect, or another doubt; inactive = no such curve, though single readings can be large or run the other way. A potency beside an inconclusive call is a rough fit, not a confirmed value.
The compounds below were run against Polyunsaturated fatty acid lipoxygenase ALOX12 (Homo sapiens) (UniProt P18054) (assay: Primary qHTS assay for inhibitors of human arachidonate 12S-lipoxygenase (ALOX12): Round 2). Conditions: purified 12hLO, xylenol orange hydroperoxide absorbance; activity change, negative = inhibition: at 108 µM (top of the series) unless noted.
In short: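 Purified human 12hLO (150 nM final) in 25 mM Hepes, 0.01% Triton X-100, pH 7.0 was preincubated 15 min at room temperature with compound. Then 40 uM arachidonic acid was added, 30 min. Hydroperoxide was read by Fe-XO absorbance ratio 573/405 nm.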
% is set by controls: 0 for no effect and ±100 for the full control effect; potency is the fitted concentration of half-maximal effect.

Protein sequences, listed by entry. Tags and fused reporters are not part of them. Lines headed by an entry give the natural chain unless they say otherwise; changes in a name come on top.
UniProt P18054: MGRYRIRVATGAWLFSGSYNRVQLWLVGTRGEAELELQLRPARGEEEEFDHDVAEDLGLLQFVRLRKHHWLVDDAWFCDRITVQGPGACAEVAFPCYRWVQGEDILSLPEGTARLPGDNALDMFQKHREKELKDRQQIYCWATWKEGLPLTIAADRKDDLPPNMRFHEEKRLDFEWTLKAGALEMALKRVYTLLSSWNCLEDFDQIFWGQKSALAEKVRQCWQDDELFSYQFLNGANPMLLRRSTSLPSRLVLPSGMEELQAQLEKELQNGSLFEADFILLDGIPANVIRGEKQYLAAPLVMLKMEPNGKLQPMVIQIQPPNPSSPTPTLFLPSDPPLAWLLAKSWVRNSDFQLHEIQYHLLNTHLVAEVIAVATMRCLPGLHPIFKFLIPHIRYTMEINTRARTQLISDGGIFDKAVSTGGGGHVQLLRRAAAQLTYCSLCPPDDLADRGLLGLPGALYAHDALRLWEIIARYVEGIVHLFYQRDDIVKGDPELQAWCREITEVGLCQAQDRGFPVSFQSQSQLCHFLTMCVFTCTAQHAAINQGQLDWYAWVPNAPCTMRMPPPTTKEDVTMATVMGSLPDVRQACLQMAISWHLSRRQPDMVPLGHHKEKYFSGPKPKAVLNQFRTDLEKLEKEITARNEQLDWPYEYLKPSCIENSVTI

SMILES | Potency | activity change, negative = inhibition
C=CCc1ccc(O)c(-c2cc(CC=C)ccc2O)c1 | inconclusive: 141 µM [inhibitor, single point] and inconclusive: 126 µM [inhibitor, single point] | 
Cc1c(CCC(=O)NCCc2ccccc2F)c(=O)oc2cc(O)ccc12 |  | inconclusive: -31.4% [inhibitor]
O=C(Nc1cc(S(=O)(=O)Nc2ccc(Cl)cc2)ccc1N1CCCCC1)c1ccc(F)cc1Cl | inconclusive: 14.1 µM [inhibitor, partial curve, poor fit] | 
CC(C)Cc1nnc2sc(-c3cc4ccccc4[nH]3)nn12 | inconclusive: 39.8 µM [inhibitor, partial curve, poor fit] | 
COC(=O)C(C)N1C(=O)S/C(=C/c2cc(C)n(C(C)C)c2C)C1=O (stereo not given) | inconclusive: 31.6 µM [inhibitor, partial curve, poor fit] | 
NC(=O)c1ccc(NC(=O)COc2ccc(-n3cnnn3)cc2)cc1 | inconclusive: 112 µM [inhibitor, single point] | 
O=[N+]([O-])c1ccccc1N=Nc1ccc(O)cc1O | inconclusive: 50.1 µM [inhibitor, partial curve, poor fit] | 
CCn1c(N)c(C(=O)NCCOC)sc1=S | inconclusive: 35.5 µM [inhibitor, partial curve, poor fit] | 
O=C(/C=C/c1ccc(F)cc1)NCC1Cc2cccc(-c3ncccn3)c2O1 (stereo not given) |  | inactive: 5.82%
Cc1ccc(CN2CC(C(=O)Nc3ccc(F)c([N+](=O)[O-])c3)CC2=O)cc1 (stereo not given) | inconclusive: 70.8 µM [inhibitor, partial curve, poor fit] | 
C=CCn1c(C#N)c(N)sc1=N | inconclusive: 22.4 µM [inhibitor, partial curve, poor fit] | 
Cc1ccc(-c2cc(C(=O)NCCc3ccccc3)c3ccccc3n2)cc1C |  | inactive: -13.3%
CC(=O)N1CCN(C(=O)c2cccc(-c3ccco3)c2)CC(O)C1 (stereo not given) | inconclusive: 35.5 µM [inhibitor, single point] | 
CCCCOc1ccc2c(C)c(CCC(C)C)c(=O)oc2c1 |  | inactive: -2.77%
C(#CCN1CCN(C(c2ccccc2)c2ccccc2)CC1)COC(c1ccccc1)c1ccccc1 | inconclusive: 25.1 µM [inhibitor, partial curve, poor fit] | 
[O-]C(=C(C(=S)Nc1cccc2ccccc12)[n+]1cccc(CO)c1)c1ccc(Cl)s1 | inconclusive: 44.7 µM [inhibitor, partial curve, poor fit] | 
CN(C)c1ccc(/C=C(\C#N)c2nc3ccccc3c(=O)[nH]2)cc1 |  | inactive: -12.4%
Cc1ccc2[nH]c(=O)c(CN(C)C(=O)c3ccc(C(C)(C)C)cc3)cc2c1 | inconclusive: 100 µM [inhibitor, single point] | 
O=C(NCc1ccccc1)C1CCC(=O)N1C1CCN(C(=O)c2ccccc2F)CC1 (stereo not given) |  | inactive: 52.7%
N=c1c2c(-c3ccccc3)c(-c3ccccc3)oc2ncn1Cc1ccco1 |  | inconclusive: -33% [inhibitor]
COCC(=O)n1nc(NCc2ccc(OC)cc2)nc1NCc1ccc(OC)cc1 | inconclusive: 112 µM [inhibitor, single point] | 
CC(NCCC(c1ccccc1)c1ccccc1O)c1ccccc1 (stereo not given) | inconclusive: 89.1 µM [inhibitor, single point] | 
CC1CCCC(C)N1/N=C/c1cc(Br)c(O)c(Br)c1 (stereo not given) | inconclusive: 100 µM [inhibitor, partial curve, poor fit] | 
CCN(CC)C(=O)CN1C(=O)NC2(CCC(C(C)(C)C)CC2)C1=O (stereo not given) |  | inactive: 7.86%

A stretch of the results above, for reference:
SMILES | Potency | activity change, negative = inhibition
Cc1ccc2[nH]c(=O)c(CN(C)C(=O)c3ccc(C(C)(C)C)cc3)cc2c1 | inconclusive: 100 µM [inhibitor, single point] | 
O=C(NCc1ccccc1)C1CCC(=O)N1C1CCN(C(=O)c2ccccc2F)CC1 (stereo not given) |  | inactive: 52.7%

Remaining list, next part

SMILES | Potency | activity change, negative = inhibition
CC1CN=C(c2ccc(Cl)cc2)c2c3ccccc3nn21 (stereo not given) | inconclusive: 70.8 µM [inhibitor, partial curve, poor fit] | 
COC(=O)c1ccc(/C=N/OCc2ccc(C(=O)OC)cc2)cc1 |  | inactive: -54.5%
N#Cc1ccc(COc2ccc(Cl)cc2Br)cc1 |  | inactive: -0.449%
Cc1ccc(C(=O)O)cc1-n1c(C)cc(C=O)c1C | inconclusive: 35.5 µM [inhibitor, partial curve, poor fit] | 
Cc1ccc(C)c(N=Cc2ccc([N+](=O)[O-])cc2)c1 |  | inactive: -11.6%
COc1ccc(C2C(C(=O)c3ccco3)=C(O)C(=O)N2Cc2cccnc2)cc1OC (stereo not given) | inconclusive: 3.55 µM [inhibitor, full curve, poor fit] | 
Cc1ccc(F)c(OCC(=O)c2ccc3c(c2)N(C(C)C(=O)NCc2ccco2)C(=O)CO3)c1 (stereo not given) |  | inactive: 0.944%
CCCCCCCc1ccc(-c2ccc(OC(F)F)cc2)nc1 |  | inactive: 3.86%
CCC1(C2CCN(C(=O)c3cc4ccccc4o3)CC2)NC(=O)N(CCc2scnc2C)C1=O (stereo not given) |  | inactive: 14.4%
CCCc1noc(-c2ccn3c(CNC(=O)c4ccccn4)nnc3c2)n1 | inconclusive: 56.2 µM [inhibitor, partial curve, poor fit] | 
COc1cc(OC)cc(C(=O)N2CCN(Cc3ccc4c(c3)OCO4)CC2)c1 | inconclusive: 2.51 µM [inhibitor, full curve, poor fit] | 
Cc1nn(C)c2c1c(-c1ccccc1)cc(=O)n2CC(=O)NC(C)(C)C | inconclusive: 112 µM [inhibitor, partial curve, poor fit] | 
CCN1C(=O)CC(c2ccco2)Sc2ccccc21 (stereo not given) |  | inactive: -29.1%
Cc1cccc([C@H]2[C@@H]3C=CC[C@@H](C)[C@@H]3C(=O)N2Cc2ccccc2)c1 | inconclusive: 10 µM [inhibitor, partial curve, poor fit] | 
Cc1cnc2c(Cl)c(C(=O)N[C@@H]3COCC[C@@H]3OCC3CC3)nn2c1 |  | inactive: -8.87%
COc1ccccc1NC(=O)NNC(=O)c1cc2ccccc2cc1O | inconclusive: 44.7 µM [inhibitor, partial curve, poor fit] | 
Fc1ccc(CN2CC(Oc3ccc4c(c3)OCO4)C2)cc1 | inconclusive: 44.7 µM [inhibitor, partial curve, poor fit] | 
C=CCn1c(SCC(=O)NC2CCS(=O)(=O)C2)nc2scc(C3CC3)c2c1=O (stereo not given) |  | inactive: -9.57%
Cc1ccc(C2C(C(=O)c3ccco3)=C(O)C(=O)N2c2ncccn2)cc1 (stereo not given) |  | inactive: 20.4%
CC(=O)c1ccc(Nc2ccc(-c3ccccc3C)nn2)cc1 | inconclusive: 50.1 µM [inhibitor, partial curve, poor fit] | 
COc1cccc(NC(=O)C2(C#N)CCCC2)c1 |  | inactive: 43.9%
CCCOc1ccc(C(=O)NNC(=S)NC(=O)CC)cc1 | inconclusive: 70.8 µM [inhibitor, partial curve, poor fit] | 
Cc1ccc(NC(=S)NC2CCCC2)cc1 | inconclusive: 112 µM [inhibitor, single point] | 
CSc1ccccc1NC(=O)c1cnccn1 | inconclusive: 39.8 µM [inhibitor, partial curve, poor fit] | 

SMILES | Potency | activity change, negative = inhibition
COC(=O)C1(NC(=O)CCNC(C)=O)CCCCCC1 |  | inactive: 0.901%
CCCCSc1nc2c(c(=O)[nH]c(=O)n2C)n1C(C)C | inconclusive: 89.1 µM [inhibitor, single point] | 
O=C(COC(=O)c1c[nH]c2ccccc12)NC(=O)NC1CCCC1 |  | inactive: -1.94%
O=C1COc2ccc(OCc3ccccc3)nc2CN1CCOc1ccccc1 | active: 11.2 µM | 
O=C(O)c1cn(-c2ccc(F)c(F)c2)c2c(F)c(F)c(F)c(F)c2c1=O | inconclusive: 5.62 µM [inhibitor, full curve, poor fit] | 
COc1cccc(NC(=O)CSc2ccccn2)c1 | inconclusive: 0.199 µM [inhibitor, full curve, poor fit] | 
CCOC(=O)C(=O)NNc1ccccc1OC | inconclusive: 100 µM [inhibitor, single point] | 
CCOC(=O)/C(N=Nc1c(Br)cc(Br)cc1Br)=C(\C)O | inconclusive: 141 µM [inhibitor, single point] | 
CC(=O)Nc1ccc(NC(=O)c2ccco2)cc1 |  | inactive: 7.89%
Cc1ccc(NC(=O)C2CC(=O)Nc3ncnn32)cc1Cl (stereo not given) |  | inactive: 10.3%
CCc1nnc(NS(=O)(=O)c2ccc(NC(=S)NC(=O)/C=C/c3cccs3)cc2)s1 | inconclusive: 7.94 µM [inhibitor, full curve, poor fit] | 
CCCCCNCC(=O)Nc1cccc(C(=O)Nc2cccc(C(F)(F)F)c2)c1 | inconclusive: 0.794 µM [inhibitor, full curve, poor fit] | 
C[C@@H]1CN([C@H](C)CO)C(=O)c2cc(NC(=O)Nc3ccc(C(F)(F)F)cc3)ccc2O[C@H]1CN(C)S(=O)(=O)c1ccc(Cl)cc1 | inconclusive: 50.1 µM [inhibitor, partial curve, poor fit] | 
CC(C)CNC(=O)c1ccc2c(c1)NC(=O)CS2 | inconclusive: 126 µM [inhibitor, single point] | 
COc1ccc(CC(=O)NNC(=S)NC(=O)c2cc(OC)c(OC)c(OC)c2)cc1 | inconclusive: 35.5 µM [inhibitor, partial curve] | 
CC(=O)Nc1ccc(N2CCOCC2)c(Cl)c1 |  | inactive: -5.05%
c1ccc(CCNc2ccnc3cc4ccccc4cc23)cc1 | inconclusive: 50.1 µM [inhibitor, partial curve, poor fit] | 
CN1/C(=C/C(=O)COC(=O)c2cc3c(s2)CCC3)C(C)(C)c2ccccc21 | inconclusive: 14.1 µM [inhibitor, partial curve] | 
CC(=O)Oc1ccc2c(C)c(CC(=O)Nc3ncc(C)s3)c(=O)oc2c1 |  | inactive: 0.551%
O=C(c1cc(COc2cccc3cnccc23)on1)N1CCC(c2ccccc2Cl)C1 (stereo not given) |  | inactive: -4.21%
Cc1cc(NC(=O)COC(=O)C(Cc2ccccc2)NC(=O)c2ccco2)no1 (stereo not given) |  | inactive: 0%
COc1ccc(CNC(=O)c2cc3ccccc3oc2=O)cc1OC |  | inactive: -3.97%

A second format for two compounds above:
SMILES	Potency	activity change, negative = inhibition
COC(=O)C1(NC(=O)CCNC(C)=O)CCCCCC1		inactive: 0.901%
C[C@@H]1CN([C@H](C)CO)C(=O)c2cc(NC(=O)Nc3ccc(C(F)(F)F)cc3)ccc2O[C@H]1CN(C)S(=O)(=O)c1ccc(Cl)cc1	inconclusive: 50.1 µM [inhibitor, partial curve, poor fit]	

Reference: PubChem BioAssay AID1671190 (National Center for Advancing Translational Sciences (NCATS), 2021)
